Data on two molecules can be found in paper doi:10.1101/156059.

The test has as its target 1600002H07Rik-LAP (mouse). Description: co-IP.

Results are given in words; binding and its absence hold for the method and conditions named. Binding seen in cells or lysates may run through a third protein. Binding calls can cover weak binding; strength is not graded here.

B1: ε-tubulin (TUBE1) (protein, UniProt Q9D6T1 1-475)
chain: MTQSVVVQVGQCGNQIGCCFWDLALREHAAVNQKGIYDDAISSFFRNVDTRAVGDGGSISKGRISSLKARAVLIDMEEGVVNEILQGPLRDVFDSKQLITDISGSGNNWAVGHKVFGCLYREQILEKLRKSAEQCDCLQCFFIIHSMGGGTGSGLGTFLLKVLEDEFPEVYRFVTAVYPSSEDDVITSPYNSMLAMKELNEHADCVLPIDNQSLFDIISKIDLVVNSGKLGSAVKPKSLITSNMGAVKKHHKKPFDAMNNIVANLLLSLTSSARFEGSLNMDLNEISMNLVPFPKLHYLVSSLTPLYTLADVNIPPRRLDQMFSDAFSKDHQLIQADPRHSLYLACALIVRGNVQISDLRRNIERLKPALQFVSWNQEGWKTSLCSVPPVGHSHSLLALANNTCVKPTFMELRERFTRLYKKKAHLHHYLQVDGMEESTFTEAVSSLSALIQEYSDLDATKSLPVPDVPRLSVAL
For B1, the binding entry is listed as “binds”.

B2: δ-tubulin (TUBD1) (protein, UniProt Q9R1K7 1-455)
chain: MSIVTVQLGQCGNQIGFEVFDALFRDSHCSQGLCSKRDNEAYQASCRERFFREEENGVPVARAVLVDMEPKVINQTLSKAAQSGRWNYGQHTSFCQKQGSGNNWAYGYSVHGPKHEESIMNLIQTEVEKCDSLSGFFIIMSMAGGTGSGLGAFVTQKLQDQYSSSLKMNQIIWPYGTGEVIVQNYNSILTLSHLYRSSDALLIHENDAVHKICAKRMNIKQISFRDLNQVLAHQLGSVFQPTYSEDSSFHYRRNPLGDLMEHLVPHPEFKMLGVRNIPQMSAASLAYSAFTWAGLLKHLRQMLISSAKMEEGINWQVRPPLTGLPPIGKASAHKEHHFNTSLANLVVLRGREVHSADVEGFKDPALYTSWLEPVDAFSVWKTQRAFDKYEKSAALVSNSQLLVKPLDMIVGKAWNMFSSKAFIHQYTKFGMEEEDFLDSFALLEQVVASYGSLGP
Take B2: the binding entry is “binds”.
